Results as given in paper PMC10575921 (Nature Communications, 2023).

System: human peripheral blood mononuclear cells (PBMCs)
Experiment: cells
Details: PBMC

Structure (SMILES): CN[C@@H]1C[C@H]2O[C@@](C)([C@@H]1OC)n1c3ccccc3c3c4c(c5c6ccccc6n2c5c31)C(=O)NC4 [staurosporine]
- IC50: 550 nM
